This test deals with human Plexin B1, full length, on 293F cells (293F hPlexin B1) (human) (UniProt O43157). Description: FACS, 293F hPlexin B1 cells. (In general: A flow cytometer gives signals particle by particle.)

The chains behind the UniProt entries cited, without tags or fusion partners. Where a name states a change or a piece, a line headed by the entry shows the natural chain unless it says otherwise. Residues count along the entry.
UniProt O43157, residues 20-2135: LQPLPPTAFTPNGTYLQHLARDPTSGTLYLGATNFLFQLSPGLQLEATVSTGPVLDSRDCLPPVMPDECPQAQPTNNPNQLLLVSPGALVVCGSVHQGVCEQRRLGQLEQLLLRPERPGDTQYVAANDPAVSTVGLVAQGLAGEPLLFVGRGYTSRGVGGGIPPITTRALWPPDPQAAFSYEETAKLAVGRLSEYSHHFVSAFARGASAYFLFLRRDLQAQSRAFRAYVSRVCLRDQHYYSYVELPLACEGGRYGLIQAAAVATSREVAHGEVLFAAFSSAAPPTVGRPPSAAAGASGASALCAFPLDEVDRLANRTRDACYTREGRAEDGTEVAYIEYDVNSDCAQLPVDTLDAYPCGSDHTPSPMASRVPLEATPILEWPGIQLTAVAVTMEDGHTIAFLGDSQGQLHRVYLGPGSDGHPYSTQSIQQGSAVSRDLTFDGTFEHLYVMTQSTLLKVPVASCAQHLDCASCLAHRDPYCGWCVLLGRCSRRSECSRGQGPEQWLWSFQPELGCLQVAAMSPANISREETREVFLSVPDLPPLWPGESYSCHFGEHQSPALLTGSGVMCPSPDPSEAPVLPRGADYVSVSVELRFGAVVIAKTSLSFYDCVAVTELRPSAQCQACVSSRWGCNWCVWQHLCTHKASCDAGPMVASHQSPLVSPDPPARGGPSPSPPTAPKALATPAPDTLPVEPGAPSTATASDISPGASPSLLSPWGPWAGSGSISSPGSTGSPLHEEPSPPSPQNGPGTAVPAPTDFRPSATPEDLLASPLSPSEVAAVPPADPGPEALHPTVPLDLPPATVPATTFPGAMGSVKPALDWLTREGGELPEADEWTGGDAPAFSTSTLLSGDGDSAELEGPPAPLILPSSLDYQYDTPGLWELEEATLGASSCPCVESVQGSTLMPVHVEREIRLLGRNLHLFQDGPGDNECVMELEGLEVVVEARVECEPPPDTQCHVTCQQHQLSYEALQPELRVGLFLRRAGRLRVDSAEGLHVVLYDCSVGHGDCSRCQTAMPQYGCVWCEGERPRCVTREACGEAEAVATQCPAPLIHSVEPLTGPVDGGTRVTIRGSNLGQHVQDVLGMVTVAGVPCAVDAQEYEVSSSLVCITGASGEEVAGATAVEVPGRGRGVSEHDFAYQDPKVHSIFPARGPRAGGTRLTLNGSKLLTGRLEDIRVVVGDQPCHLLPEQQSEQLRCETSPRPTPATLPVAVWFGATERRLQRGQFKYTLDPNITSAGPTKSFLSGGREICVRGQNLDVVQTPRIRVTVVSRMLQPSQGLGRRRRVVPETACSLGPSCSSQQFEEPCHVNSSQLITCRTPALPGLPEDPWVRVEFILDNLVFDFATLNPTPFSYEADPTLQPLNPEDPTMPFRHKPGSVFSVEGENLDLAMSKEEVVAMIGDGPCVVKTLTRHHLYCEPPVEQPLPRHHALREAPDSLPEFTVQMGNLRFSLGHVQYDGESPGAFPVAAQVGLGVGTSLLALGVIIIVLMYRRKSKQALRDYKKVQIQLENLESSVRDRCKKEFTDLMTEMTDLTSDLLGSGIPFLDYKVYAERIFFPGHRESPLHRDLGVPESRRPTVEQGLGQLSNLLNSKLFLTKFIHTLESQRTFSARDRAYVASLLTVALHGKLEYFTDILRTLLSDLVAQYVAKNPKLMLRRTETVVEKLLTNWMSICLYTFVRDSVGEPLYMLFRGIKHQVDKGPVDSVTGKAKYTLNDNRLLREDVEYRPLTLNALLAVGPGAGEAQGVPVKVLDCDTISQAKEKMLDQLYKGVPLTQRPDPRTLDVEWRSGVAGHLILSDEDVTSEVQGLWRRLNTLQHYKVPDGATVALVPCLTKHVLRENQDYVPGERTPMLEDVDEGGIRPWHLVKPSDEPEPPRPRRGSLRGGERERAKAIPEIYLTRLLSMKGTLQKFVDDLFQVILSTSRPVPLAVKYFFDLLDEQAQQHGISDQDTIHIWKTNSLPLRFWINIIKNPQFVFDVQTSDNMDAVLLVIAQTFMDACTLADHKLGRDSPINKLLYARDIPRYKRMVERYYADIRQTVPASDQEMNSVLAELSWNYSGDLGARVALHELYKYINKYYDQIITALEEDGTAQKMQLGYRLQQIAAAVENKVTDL
UniProt Q92854: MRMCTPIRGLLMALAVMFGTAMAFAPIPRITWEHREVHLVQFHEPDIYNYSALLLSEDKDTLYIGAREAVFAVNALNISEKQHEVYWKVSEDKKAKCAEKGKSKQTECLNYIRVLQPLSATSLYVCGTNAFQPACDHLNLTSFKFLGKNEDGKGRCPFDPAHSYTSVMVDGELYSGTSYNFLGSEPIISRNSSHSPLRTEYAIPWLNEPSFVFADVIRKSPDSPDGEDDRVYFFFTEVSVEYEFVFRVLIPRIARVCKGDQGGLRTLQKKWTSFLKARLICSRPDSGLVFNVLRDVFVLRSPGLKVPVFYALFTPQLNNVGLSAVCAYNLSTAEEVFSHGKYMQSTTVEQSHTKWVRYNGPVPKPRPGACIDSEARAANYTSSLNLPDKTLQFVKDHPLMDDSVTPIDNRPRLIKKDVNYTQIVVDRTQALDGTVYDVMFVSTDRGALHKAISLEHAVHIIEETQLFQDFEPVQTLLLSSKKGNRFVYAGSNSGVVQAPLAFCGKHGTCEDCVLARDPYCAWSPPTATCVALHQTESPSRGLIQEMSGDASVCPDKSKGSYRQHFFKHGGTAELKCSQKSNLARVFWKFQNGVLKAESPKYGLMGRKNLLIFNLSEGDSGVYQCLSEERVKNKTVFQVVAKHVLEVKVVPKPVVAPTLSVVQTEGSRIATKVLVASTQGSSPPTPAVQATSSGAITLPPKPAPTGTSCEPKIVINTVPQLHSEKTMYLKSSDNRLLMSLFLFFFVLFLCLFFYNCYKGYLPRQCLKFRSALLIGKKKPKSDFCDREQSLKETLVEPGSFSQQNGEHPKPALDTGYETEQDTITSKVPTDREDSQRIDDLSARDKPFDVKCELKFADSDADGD

Results are given in words; binding and its absence hold for the method and conditions named. Some results given as binding are weak or reduced against the parent protein; the word gives no strength.

As to “biotinylated hSEMA4D ECD-His (from UniProt Q92854 22-734) (ligand)”, the binding entry was “binds”.
